# Results taken from paper PMC4015977.
# No constants are given. Whether binding was seen depends on the method and setting. Binding seen in cells or lysates may run through a third protein. Some binding calls cover weakened binding; strength is not graded here.
# T1: active caspase-8 (labelled with biotin-VAD-fmk) (mouse (endogenous in MEF)) (UniProt O89110)
# T1 sequence (chain, labelled in cells with biotin-VAD-fmk (bVAD-fmk)): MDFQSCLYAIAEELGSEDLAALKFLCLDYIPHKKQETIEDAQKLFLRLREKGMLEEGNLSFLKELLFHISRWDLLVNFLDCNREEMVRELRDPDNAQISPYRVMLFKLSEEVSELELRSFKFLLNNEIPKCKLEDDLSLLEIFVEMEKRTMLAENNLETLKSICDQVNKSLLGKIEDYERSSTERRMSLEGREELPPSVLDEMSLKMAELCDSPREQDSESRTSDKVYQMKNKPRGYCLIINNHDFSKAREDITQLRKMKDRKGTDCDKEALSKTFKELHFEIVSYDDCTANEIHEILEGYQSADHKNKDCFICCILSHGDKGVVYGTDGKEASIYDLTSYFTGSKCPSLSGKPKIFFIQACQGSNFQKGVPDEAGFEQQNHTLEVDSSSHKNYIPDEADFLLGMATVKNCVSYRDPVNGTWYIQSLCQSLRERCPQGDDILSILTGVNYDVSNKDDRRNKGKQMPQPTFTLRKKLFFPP
# Target: T1, active caspase-8 (labelled with biotin-VAD-fmk) (mouse (endogenous in MEF))
# Assay: pull-down; biotin-VAD-fmk precipitation: MEFs 24 h after CVB3 infection incubated with 50 uM bVAD-fmk for 5 h at 37 C, lysed, 600 ug protein with magnetic streptavidin beads at 4 C for 2 h, 5 washes; caspase-8 and MAVS detected by immunoblot
binder,measurement,value
"mitochondrial antiviral signaling protein (MAVS) (protein, UniProt Q8VCF0 1-503) MTFAEDKTYKYIRDNHSKFCCVDVLEILPYLSCLTASDQDRLRASYRQIGNRDTLWGLFNNLQRRPGWVEVFIRALQICELPGLADQVTRVYQSYLPPGTSLRSLEPLQLPDFPAAVSGPSAFAPGHNIPDHGLRETPSCPKPVQDTQPPESPVENSEQLLQTNSGAVARMSGGSLIPSPNQQALSPQPSREHQEQEPELGGAHAANVASVPIATYGPVSPTVSFQPLPRTALRTNLLSGVTVSALSADTSLSSSSTGSAFAKGAGDQAKAATCFSTTLTNSVTTSSVPSPRLVPVKTMSSKLPLSSKSTAAMTSTVLTNTAPSKLPSNSVYAGTVPSRVPASVAKAPANTIPPERNSKQAKETPEGPATKVTTGGNQTGPNSSIRSLHSGPEMSKPGVLVSQLDEPFSACSVDLAISPSSSLVSEPNHGPEENEYSSFRIQVDESPSADLLGSPEPLATQQPQEEEEHCASSMPWAKWLGATSALLAVFLAVMLYRSRRLAQ",binding,binds
